Measured values: article PMC11747798

Sequences of proteins named here, by UniProt entry; tags and fusion partners are left off.
UniProt P46821: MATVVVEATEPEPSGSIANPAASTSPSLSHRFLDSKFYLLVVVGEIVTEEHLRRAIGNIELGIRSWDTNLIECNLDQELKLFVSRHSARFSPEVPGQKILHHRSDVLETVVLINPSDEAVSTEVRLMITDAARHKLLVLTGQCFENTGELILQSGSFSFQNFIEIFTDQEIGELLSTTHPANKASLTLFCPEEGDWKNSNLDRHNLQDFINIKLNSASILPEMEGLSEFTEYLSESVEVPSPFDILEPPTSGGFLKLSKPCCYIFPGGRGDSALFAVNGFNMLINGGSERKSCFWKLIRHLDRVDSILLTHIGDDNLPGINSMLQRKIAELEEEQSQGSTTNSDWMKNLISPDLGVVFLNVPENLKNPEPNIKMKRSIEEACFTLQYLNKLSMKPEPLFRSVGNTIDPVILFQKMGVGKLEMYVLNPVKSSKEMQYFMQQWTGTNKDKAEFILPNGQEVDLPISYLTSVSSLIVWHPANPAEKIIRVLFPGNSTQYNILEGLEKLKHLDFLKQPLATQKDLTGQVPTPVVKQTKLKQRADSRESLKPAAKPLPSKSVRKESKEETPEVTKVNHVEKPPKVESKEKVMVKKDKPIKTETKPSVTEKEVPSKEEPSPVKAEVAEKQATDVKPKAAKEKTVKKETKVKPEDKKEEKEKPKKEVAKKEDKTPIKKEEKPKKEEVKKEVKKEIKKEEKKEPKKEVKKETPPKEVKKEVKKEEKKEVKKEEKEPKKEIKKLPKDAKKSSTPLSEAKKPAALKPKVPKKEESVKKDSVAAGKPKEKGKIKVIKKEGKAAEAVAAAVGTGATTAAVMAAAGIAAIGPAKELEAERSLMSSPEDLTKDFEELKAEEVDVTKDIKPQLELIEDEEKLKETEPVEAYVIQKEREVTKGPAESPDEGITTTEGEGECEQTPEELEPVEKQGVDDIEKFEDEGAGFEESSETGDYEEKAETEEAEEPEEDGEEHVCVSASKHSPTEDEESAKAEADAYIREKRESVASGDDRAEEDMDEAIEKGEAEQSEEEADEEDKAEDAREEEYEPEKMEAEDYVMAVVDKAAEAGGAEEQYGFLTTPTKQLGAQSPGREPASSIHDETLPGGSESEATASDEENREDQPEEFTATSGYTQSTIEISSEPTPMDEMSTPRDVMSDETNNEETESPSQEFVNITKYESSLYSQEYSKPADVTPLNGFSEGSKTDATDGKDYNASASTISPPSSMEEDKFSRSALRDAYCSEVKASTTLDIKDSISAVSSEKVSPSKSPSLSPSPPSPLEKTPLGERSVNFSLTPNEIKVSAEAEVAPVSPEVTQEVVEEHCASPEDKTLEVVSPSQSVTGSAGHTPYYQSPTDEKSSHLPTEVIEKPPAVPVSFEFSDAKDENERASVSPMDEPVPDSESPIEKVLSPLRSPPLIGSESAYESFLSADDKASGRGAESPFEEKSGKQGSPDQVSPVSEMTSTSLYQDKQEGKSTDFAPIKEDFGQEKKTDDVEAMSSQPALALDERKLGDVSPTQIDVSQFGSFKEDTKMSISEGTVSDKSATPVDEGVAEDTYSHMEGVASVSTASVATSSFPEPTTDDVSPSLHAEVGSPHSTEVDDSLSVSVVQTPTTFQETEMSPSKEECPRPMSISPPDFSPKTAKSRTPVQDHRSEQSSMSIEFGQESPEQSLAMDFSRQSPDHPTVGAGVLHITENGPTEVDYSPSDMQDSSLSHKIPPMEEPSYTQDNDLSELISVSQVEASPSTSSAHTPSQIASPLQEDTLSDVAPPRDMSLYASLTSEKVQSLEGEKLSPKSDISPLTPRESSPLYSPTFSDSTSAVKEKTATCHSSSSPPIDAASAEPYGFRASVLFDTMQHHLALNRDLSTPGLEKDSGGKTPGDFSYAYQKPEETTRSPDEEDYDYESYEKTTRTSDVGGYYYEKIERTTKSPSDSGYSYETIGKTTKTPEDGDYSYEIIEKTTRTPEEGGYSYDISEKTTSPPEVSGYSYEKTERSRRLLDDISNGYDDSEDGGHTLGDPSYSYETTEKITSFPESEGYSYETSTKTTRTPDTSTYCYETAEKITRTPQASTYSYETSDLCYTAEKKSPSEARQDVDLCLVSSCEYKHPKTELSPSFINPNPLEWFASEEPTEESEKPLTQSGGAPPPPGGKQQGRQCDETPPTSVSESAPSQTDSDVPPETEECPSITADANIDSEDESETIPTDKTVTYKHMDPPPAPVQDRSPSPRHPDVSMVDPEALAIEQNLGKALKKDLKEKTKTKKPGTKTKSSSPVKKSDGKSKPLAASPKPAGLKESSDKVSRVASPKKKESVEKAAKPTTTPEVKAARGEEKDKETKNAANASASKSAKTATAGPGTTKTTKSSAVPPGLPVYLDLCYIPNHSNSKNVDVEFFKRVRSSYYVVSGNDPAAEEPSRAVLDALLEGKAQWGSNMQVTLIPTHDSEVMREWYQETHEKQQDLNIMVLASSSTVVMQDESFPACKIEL
UniProt Q14980: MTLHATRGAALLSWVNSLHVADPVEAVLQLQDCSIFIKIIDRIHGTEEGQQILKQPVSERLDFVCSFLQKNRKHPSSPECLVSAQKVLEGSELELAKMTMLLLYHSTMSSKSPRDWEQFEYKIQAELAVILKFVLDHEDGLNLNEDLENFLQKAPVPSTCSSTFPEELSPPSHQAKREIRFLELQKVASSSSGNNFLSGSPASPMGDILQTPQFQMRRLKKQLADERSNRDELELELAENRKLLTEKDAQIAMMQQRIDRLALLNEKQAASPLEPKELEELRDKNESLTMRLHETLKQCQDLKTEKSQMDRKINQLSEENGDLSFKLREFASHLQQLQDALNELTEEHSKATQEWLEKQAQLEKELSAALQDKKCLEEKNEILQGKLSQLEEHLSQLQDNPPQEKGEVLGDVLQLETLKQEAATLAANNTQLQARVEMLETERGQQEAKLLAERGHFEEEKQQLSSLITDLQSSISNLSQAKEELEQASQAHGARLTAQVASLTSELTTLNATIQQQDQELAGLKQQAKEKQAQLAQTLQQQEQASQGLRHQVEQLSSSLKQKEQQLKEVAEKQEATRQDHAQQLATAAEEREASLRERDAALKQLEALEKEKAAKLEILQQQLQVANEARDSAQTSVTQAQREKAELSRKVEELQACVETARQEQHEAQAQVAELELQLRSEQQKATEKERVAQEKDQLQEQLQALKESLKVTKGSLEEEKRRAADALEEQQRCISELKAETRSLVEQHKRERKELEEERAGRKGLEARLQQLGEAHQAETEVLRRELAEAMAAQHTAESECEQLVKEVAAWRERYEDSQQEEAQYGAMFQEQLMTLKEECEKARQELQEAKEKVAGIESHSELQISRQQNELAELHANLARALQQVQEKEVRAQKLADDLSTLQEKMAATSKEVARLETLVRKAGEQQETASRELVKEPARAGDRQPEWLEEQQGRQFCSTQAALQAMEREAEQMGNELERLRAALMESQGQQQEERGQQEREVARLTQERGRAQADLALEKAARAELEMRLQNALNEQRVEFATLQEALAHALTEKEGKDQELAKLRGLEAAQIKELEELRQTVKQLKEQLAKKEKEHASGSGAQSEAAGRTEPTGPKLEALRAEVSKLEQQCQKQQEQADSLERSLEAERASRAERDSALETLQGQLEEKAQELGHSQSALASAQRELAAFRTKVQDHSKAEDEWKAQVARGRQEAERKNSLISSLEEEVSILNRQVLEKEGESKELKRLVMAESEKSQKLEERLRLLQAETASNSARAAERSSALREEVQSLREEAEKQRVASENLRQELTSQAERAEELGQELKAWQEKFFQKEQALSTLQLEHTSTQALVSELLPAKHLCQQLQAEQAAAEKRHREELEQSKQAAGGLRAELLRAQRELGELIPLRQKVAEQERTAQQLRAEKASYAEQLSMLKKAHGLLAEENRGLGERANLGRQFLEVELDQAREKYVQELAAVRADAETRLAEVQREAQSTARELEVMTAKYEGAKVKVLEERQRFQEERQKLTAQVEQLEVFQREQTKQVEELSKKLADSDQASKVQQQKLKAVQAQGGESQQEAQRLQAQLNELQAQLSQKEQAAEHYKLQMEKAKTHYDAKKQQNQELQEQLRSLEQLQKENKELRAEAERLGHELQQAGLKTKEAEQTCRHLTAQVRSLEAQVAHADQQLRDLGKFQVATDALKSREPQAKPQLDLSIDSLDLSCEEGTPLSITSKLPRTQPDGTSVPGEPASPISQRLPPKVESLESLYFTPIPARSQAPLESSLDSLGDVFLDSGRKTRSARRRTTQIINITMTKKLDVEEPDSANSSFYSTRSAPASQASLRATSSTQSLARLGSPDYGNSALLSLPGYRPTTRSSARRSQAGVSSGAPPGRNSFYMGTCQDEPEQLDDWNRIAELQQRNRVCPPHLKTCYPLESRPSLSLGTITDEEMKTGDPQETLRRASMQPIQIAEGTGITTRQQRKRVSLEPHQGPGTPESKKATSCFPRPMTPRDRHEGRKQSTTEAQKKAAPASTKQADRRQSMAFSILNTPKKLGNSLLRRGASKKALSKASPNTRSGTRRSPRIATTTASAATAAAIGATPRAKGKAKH
UniProt Q06330: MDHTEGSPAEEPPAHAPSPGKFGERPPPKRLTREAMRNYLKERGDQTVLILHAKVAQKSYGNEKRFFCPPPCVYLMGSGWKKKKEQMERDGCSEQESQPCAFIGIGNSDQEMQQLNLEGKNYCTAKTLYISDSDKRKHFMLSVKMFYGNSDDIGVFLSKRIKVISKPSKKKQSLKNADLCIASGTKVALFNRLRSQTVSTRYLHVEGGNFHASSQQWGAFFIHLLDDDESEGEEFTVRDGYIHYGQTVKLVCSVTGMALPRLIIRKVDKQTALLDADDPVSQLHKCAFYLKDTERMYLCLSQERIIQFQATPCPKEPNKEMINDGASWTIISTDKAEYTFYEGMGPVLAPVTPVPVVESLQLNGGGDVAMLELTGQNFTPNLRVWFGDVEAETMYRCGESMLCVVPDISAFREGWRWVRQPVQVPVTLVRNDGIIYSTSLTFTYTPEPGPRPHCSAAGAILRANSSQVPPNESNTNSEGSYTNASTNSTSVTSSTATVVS

T1: HA-tagged RITA (UniProt Q96K30)
T1 sequence: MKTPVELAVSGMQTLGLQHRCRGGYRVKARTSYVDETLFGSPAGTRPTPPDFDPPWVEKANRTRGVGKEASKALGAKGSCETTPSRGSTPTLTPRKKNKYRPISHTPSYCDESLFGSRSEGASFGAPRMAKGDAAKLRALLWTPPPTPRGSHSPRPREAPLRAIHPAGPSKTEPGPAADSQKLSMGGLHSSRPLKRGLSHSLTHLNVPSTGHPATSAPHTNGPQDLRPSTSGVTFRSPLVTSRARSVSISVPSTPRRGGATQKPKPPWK


Molecular target: T1, HA-tagged RITA
Experiment: affinity purification with mass spectrometry; re-analysis of an earlier mass spectrometry analysis (Hoock et al., 2019) of HA-tagged RITA immunoprecipitates from transiently transfected HEK293T cells; partners with a weighted D score >= 1 presented

Row | Molecule | binding
1 | MAP1B (microtubule-associated protein 1B) (from UniProt P46821 1-2468) | binds
2 | NUMA1 (nuclear mitotic apparatus protein 1) (from UniProt Q14980 1-2115) | binds
3 | RBP-J (recombination signal binding protein for immunoglobulin kappa J region) (from UniProt Q06330 1-500) | binds
4 | LPP (lipoma-preferred partner) (protein, UniProt Q93052 1-612) MSHPSWLPPKSTGEPLGHVPARMETTHSFGNPSISVSTQQPPKKFAPVVAPKPKYNPYKQPGGEGDFLPPPPPPLDDSSALPSISGNFPPPPPLDEEAFKVQGNPGGKTLEERRSSLDAEIDSLTSILADLECSSPYKPRPPQSSTGSTASPPVSTPVTGHKRMVIPNQPPLTATKKSTLKPQPAPQAGPIPVAPIGTLKPQPQPVPASYTTASTSSRPTFNVQVKSAQPSPHYMAAPSSGQIYGSGPQGYNTQPVPVSGQCPPPSTRGGMDYAYIPPPGLQPEPGYGYAPNQGRYYEGYYAAGPGYGGRNDSDPTYGQQGHPNTWKREPGYTPPGAGNQNPPGMYPVTGPKKTYITDPVSAPCAPPLQPKGGHSGQLGPSSVAPSFRPEDELEHLTKKMLYDMENPPADEYFGRCARCGENVVGEGTGCTAMDQVFHVDCFTCIICNNKLRGQPFYAVEKKAYCEPCYINTLEQCNVCSKPIMERILRATGKAYHPHCFTCVMCHRSLDGIPFTVDAGGLIHCIEDFHKKFAPRCSVCKEPIMPAPGQEETVRIVALDRDFHVHCYRCEDCGGLLSEGDNQGCYPLDGHILCKTCNSARIRVLTAKASTDL | binds

Results are given in words; binding and its absence hold for the method and conditions named. In cells and extracts the contact can be indirect. Here binding means that the protein was enriched with, or labelled near, the bait; the list need not be complete. Tags and fused reporters may be left off the sequences shown.
